Results on two sequences are retold here after patent US20110028538.

Data set [1] has as its target T1, TR4 (NR2C2) (Homo sapiens) (UniProt P49116).
T1 sequence: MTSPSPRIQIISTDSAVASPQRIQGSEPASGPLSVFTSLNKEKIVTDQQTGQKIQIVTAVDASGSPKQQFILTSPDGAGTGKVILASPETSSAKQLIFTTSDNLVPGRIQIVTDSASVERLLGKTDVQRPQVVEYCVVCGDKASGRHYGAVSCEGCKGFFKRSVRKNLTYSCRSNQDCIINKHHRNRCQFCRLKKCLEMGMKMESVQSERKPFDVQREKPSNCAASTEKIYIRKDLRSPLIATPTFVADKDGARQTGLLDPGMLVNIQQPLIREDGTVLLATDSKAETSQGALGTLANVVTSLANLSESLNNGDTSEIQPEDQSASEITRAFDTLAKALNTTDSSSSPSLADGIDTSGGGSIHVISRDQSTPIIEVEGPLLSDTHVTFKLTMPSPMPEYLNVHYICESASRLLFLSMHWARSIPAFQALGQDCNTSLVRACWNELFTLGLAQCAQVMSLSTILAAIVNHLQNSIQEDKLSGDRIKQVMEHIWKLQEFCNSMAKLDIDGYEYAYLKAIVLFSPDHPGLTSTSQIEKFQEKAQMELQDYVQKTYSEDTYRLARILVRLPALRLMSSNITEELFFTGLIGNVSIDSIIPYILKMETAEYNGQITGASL
Description: activity in cells. As to conditions: protein in cells, protein details: pCMX-TR4 transfected in CV-1, only the site is given.

The target in data set [2] is T1, TR4 (NR2C2) (Homo sapiens). Briefly: competition with a labelled probe. Particulars: excess mutant TR4RE did not compete for TR4-TR4RE complex; protein translated in vitro; protein details: expressed from pCMX-TR4, full length human; variant of CD36 promoter TR4RE.
The target in data set [3] is T1, TR4 (NR2C2) (Homo sapiens). Briefly: EMSA. As to conditions: protein translated in vitro; protein details: expressed from pCMX-TR4, full length human; label: 32P.

The exact form of at least one protein or probe is not confirmed. For some of these results: No signal at the amounts used counts as a negative. Protein sequences can lack the tags named with them.

On to “TGAAACTGACTT (double strand) [mutant TR4RE]”, for which the “activity on this sequence” value in data set [1] (mutant CD36 promoter luciferase not activated by TR4, variant of CD36 promoter TR4RE) is given as “not active”. Further, the binding result in data set [2] is recorded as “no binding”.

Consider “TGGCCTCTGACTT (double strand) [CD36 promoter TR4RE]”, for which the “activity on this sequence” value in data set [1] (300-bp CD36 promoter luciferase in CV-1, dose-dependent activation) is on record as “active”. Moreover, the binding result in data set [3] was “binds”.
